This passage reports binding results from paper PMC5992529.

Experiment [1] concerns the target T1, EGFP-fused IFT70A (human) (UniProt Q86WT1).
T1 sequence: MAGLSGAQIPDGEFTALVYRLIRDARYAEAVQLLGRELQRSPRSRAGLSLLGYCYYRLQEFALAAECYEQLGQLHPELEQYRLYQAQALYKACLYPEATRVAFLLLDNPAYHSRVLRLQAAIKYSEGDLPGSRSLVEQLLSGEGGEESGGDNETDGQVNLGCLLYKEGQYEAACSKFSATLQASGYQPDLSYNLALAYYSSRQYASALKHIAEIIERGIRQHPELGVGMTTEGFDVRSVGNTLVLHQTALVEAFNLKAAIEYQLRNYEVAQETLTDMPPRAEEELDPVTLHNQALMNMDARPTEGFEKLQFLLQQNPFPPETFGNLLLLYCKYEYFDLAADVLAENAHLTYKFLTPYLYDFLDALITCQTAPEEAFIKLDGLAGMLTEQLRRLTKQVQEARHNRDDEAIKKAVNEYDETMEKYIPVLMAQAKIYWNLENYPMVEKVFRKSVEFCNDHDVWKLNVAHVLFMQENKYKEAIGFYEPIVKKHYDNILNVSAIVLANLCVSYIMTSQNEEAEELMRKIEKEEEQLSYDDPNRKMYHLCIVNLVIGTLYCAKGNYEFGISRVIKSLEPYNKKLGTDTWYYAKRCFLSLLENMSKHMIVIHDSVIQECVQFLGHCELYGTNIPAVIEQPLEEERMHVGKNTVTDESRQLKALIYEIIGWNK
The experiment can be described thus: co-IP; VIP assay and immunoblot of the same beads; lysate of HEK293T cells cotransfected with EGFP-IFT70A or EGFP-IFT70B and mChe-IFT52 + mChe-IFT88 together; precipitated with GST-tagged anti-GFP nanobody beads; HMDEKN buffer pH 7.4, 1 h at 4°C. In general terms: A western blot detects proteins with antibodies after separation by electrophoresis.

Experiment [2] deals with T1, EGFP-fused IFT70A (human). The experiment can be described thus: co-IP; visible immunoprecipitation (VIP) assay (red fluorescence on the beads seen under a microscope) and immunoblot of the same beads; lysate of HEK293T cells cotransfected with EGFP-IFT70A or EGFP-IFT70B and ONE mChe fusion alone; precipitated with GST-tagged anti-GFP nanobody on glutathione-Sepharose; HMDEKN buffer (10 mM HEPES pH 7.4, 5 mM MgSO4, 1 mM DTT, 0.5 mM EDTA, 25 mM KCl, 0.05% NP-40), 1 h at 4°C.

Experiment [3] has as its target T2, EGFP-fused IFT70B (human) (UniProt Q8N4P2).
T2 sequence: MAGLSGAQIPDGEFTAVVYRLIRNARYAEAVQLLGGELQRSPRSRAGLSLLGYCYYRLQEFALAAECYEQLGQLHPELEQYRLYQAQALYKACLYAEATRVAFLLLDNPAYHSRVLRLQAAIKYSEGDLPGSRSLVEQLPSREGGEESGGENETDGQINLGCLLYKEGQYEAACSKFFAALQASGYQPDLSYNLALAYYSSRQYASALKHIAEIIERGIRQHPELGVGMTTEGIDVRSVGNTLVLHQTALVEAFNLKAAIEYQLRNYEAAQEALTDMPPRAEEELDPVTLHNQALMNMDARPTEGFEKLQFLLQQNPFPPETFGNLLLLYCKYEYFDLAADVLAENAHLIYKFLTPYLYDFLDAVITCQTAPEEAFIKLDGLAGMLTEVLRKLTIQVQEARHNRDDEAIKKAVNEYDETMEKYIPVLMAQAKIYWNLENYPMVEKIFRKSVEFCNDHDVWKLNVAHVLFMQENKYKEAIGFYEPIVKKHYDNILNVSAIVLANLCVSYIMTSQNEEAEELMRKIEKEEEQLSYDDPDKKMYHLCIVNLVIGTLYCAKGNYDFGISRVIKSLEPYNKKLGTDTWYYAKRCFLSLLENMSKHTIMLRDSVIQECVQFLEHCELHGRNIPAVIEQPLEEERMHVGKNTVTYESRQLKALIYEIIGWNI
The experiment can be described thus: co-IP; VIP assay and immunoblot of the same beads; lysate of HEK293T cells cotransfected with EGFP-IFT70A or EGFP-IFT70B and mChe-IFT52 + mChe-IFT88 together; precipitated with GST-tagged anti-GFP nanobody beads; HMDEKN buffer pH 7.4, 1 h at 4°C.

Experiment [4] deals with T3, EGFP-IFT52 (UniProt Q9Y366).
T3 sequence: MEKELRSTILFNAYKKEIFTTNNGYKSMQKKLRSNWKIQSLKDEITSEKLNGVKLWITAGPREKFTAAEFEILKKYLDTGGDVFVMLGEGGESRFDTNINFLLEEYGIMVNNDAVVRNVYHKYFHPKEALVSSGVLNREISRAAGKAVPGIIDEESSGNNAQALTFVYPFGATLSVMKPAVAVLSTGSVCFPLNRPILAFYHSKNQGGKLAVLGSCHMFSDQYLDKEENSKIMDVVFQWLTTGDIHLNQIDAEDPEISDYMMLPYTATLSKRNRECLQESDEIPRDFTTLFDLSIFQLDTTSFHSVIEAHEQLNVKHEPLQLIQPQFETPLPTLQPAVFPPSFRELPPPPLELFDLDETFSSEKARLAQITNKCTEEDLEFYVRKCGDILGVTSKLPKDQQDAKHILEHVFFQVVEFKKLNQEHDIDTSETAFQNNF
Put plainly: co-IP; VIP assay and immunoblot of the same beads; lysate of HEK293T cells cotransfected with EGFP-IFT52 + EGFP-IFT88 together and an mChe-fused IFT70A construct; precipitated with GST-tagged anti-GFP nanobody beads; HMDEKN buffer pH 7.4, 1 h at 4°C.

The next experiment addresses T4, EGFP-fused IFT88 (UniProt Q13099).
T4 sequence: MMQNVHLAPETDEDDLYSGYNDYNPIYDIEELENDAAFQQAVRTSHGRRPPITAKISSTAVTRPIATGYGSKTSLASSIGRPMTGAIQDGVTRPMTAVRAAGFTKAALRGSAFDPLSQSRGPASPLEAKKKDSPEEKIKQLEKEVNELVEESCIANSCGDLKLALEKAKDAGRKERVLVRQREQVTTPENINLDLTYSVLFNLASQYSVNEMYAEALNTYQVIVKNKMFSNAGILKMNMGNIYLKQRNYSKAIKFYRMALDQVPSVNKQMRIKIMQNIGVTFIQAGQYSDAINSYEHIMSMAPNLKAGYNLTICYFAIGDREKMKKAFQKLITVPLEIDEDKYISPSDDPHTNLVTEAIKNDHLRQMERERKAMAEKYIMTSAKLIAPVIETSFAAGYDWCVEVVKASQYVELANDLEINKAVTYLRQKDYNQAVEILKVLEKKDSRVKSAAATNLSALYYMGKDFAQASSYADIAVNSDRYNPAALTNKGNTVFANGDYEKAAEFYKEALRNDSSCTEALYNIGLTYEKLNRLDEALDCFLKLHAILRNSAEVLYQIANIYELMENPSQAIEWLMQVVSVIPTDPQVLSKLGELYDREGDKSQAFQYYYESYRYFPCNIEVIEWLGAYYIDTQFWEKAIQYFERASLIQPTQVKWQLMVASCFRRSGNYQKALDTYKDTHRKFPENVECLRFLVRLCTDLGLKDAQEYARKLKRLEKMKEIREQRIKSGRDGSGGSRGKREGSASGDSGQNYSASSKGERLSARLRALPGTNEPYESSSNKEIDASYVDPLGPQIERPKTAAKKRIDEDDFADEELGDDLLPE
The experiment is described as above.

Experiment [5] deals with T3, EGFP-IFT52. Put plainly: co-IP; VIP assay and immunoblot of the same beads; lysate of HEK293T cells cotransfected with EGFP-IFT52 alone and an mChe-fused IFT70A construct; precipitated with GST-tagged anti-GFP nanobody beads; HMDEKN buffer pH 7.4, 1 h at 4°C.

Results are given in words; binding and its absence hold for the method and conditions named. In cells and extracts the contact can be indirect. Some results given as binding are weak or reduced against the parent protein; the word gives no strength. Sequences can lack the tags named with a protein.

B1: mCherry (mChe)-fused IFT52 (protein, UniProt Q9Y366 1-437)
chain: T3 sequence
With B1, the binding entry in experiment [1] is listed as “binds”; in experiment [2], “binds weakly”.

B2: mCherry (mChe)-fused IFT88 (protein, UniProt Q13099 1-824)
chain: T4 sequence
On to B2, for which the binding result in experiment [3] and in experiment [1] was “binds” throughout.

B3: mChe-fused IFT70A(WT) (protein, UniProt Q86WT1 1-665)
chain: T1 sequence
B3: the binding result in the experiment with EGFP-IFT52 [4], in the experiment with EGFP-fused IFT88 and with EGFP-IFT52 [5] was “binds” in each case.
